Assay results reported in publication PMC11067372, “Evaluation of the antiplasmodial efficacy of synthetic 2,5-diphenyloxazole analogs of compounds naturally derived from Oxytropis lanata” (International Journal for Parasitology: Drugs and Drug …, 2024).

Tests used:
P. falciparum 3D7 = assay: In vitro inhibition of P. falciparum 3D7 (SYBR Green I-based fluorescence assay); format: cell-based, Plasmodium falciparum; settings: selectivity index, CC50 HFFs relative to IC50 P. falciparum 3D7
P. falciparum K1 = assay: In vitro inhibition of P. falciparum K1 (SYBR Green I-based fluorescence assay); format: cell-based, Plasmodium falciparum; settings: for Resistance index: ratio between the IC50 values of P. falciparum K1 and 3D7; for SI K1: selectivity index, CC50 HFFs relative to IC50 P. falciparum K1
Method: The cultures were maintained in an incubator under specific conditions: 37 °C under 5% CO2 and 5% O2.
The D-sorbitol method (CAS: 50-70-4, Wako, Osaka, Japan) was employed to synchronize parasites, resulting in the attainment of ≥90% ring-stage parasites. These synchronized parasites were then utilized for the experiments within a 2-h window. The assay was performed as follows. First, 50 μL of synchronized parasites with 0.5% parasitemia and 2% hematocrit were added to individual wells of a 96-well plate. Then, 50 μL of the test compounds was introduced to each well. […] Wells containing only test compounds and erythrocytes were included for background correction. […] After the designated incubation time, 100 μL of lysis buffer containing 0.02% (v/v) SYBR Green I was added to each well, the contents of the well were mixed by pipetting, and the plate was incubated in the dark at room temperature for 2 h. […] This assay was repeated four times at each concentration, and the resulting inhibitory values represent the average from three independent trials.
The IC50 or CC50 values were determined from three independent experiments by plotting the logarithmic concentration of the compound against the percent parasite inhibition or cell growth inhibition, respectively. Nonlinear regression analysis was conducted using GraphPad Prism 10 (GraphPad Software, Inc., La Jolla, CA, USA). Comparisons between groups were evaluated using either one-way or two-way ANOVA followed by Tukey's or Fisher's multiple comparisons tests. […] The meaning of each symbol is specified in the corresponding figure legend alongside the name of the employed test.

Structure (SMILES) | SI 3D7 (P. falciparum 3D7) | Resistance index (P. falciparum K1) | SI K1 (P. falciparum K1)
Oc1ccccc1-c1cnc(-c2cccc(O)c2O)o1 [Compound 1, 2-(2′,3′-dihydroxyphenyl)-5-(2″-hydroxyphenyl)oxazole] | 5.40 | 0.56 | 9.66
CC(=O)Oc1ccccc1-c1cnc(-c2cccc(OC(C)=O)c2OC(C)=O)o1 [Compound 3] | 13.61 | 0.51 | 26.69
Oc1ccc(O)c(-c2ncc(-c3ccccc3O)o2)c1 [Compound 4, 2-(2′,5′-dihydroxyphenyl)-5-(2″-hydroxyphenyl)oxazole] | 8.93 | 0.60 | 14.81
Oc1ccc(O)c(-c2cnc(-c3ccccc3)o2)c1 [Compound 7, 2-phenyl-5-(2″,5″-hydroxyphenyl)oxazole] | 14.06 | 0.43 | 32.89
CC(=O)Oc1ccc(OC(C)=O)c(-c2cnc(-c3ccccc3)o2)c1 [Compound 9] | 16.79 | 0.38 | 44.47
Oc1ccc(O)c(-c2cnc(-c3cc(O)ccc3O)o2)c1 [Compound 10, 2-(2′,5′-dihydroxyphenyl)-5-(2″,5″-dihydroxyphenyl)oxazole] | 3.13 | 0.39 | 8.00
CC(=O)Oc1ccc(OC(C)=O)c(-c2cnc(-c3cc(OC(C)=O)ccc3OC(C)=O)o2)c1 [Compound 12] | 6.63 | 0.46 | 14.43
COc1cccc(-c2ncc(-c3ccccc3O)o2)c1OC [Compound 31, 2-(2′,3′-dimethoxyphenyl)-5-(2″-hydroxyphenyl)oxazole] | > 40.20 | 0.32 | > 126.58
COc1cccc(-c2ncc(-c3ccccc3OCc3ccccc3)o2)c1OC [Compound 32, 2-(2′,3′-dimethoxyphenyl)-5-(2″-benzyloxyphenyl)oxazole] | > 41.27 | 0.70 | > 59.06
Oc1ccccc1-c1cnc(-c2cccc(O)c2O)s1 [Compound 40] | 11.71 | 0.44 | 26.60
Oc1ccccc1-c1nnc(-c2cccc(O)c2O)o1 [Compound 42] | 5.51 | 0.65 | 8.48
Oc1ccccc1-c1nnc(-c2cccc(O)c2O)s1 [Compound 44] | 25.01 | 0.61 | 40.96
Oc1ccccc1-c1coc(-c2cccc(O)c2O)n1 [Compound 47] | 15.33 | 0.68 | 22.68
